Data: article doi:10.1101/019471
Results are given in words; binding and its absence hold for the method and conditions named. Binding seen in cells or lysates may run through a third protein. A result given as binding can be weak or reduced; the word gives no strength. Tags and fused reporters may be left off the sequences shown.

Target: T1, Cf-9-GFP (tomato (Solanum lycopersicum)) (UniProt Q40235)
T1 sequence: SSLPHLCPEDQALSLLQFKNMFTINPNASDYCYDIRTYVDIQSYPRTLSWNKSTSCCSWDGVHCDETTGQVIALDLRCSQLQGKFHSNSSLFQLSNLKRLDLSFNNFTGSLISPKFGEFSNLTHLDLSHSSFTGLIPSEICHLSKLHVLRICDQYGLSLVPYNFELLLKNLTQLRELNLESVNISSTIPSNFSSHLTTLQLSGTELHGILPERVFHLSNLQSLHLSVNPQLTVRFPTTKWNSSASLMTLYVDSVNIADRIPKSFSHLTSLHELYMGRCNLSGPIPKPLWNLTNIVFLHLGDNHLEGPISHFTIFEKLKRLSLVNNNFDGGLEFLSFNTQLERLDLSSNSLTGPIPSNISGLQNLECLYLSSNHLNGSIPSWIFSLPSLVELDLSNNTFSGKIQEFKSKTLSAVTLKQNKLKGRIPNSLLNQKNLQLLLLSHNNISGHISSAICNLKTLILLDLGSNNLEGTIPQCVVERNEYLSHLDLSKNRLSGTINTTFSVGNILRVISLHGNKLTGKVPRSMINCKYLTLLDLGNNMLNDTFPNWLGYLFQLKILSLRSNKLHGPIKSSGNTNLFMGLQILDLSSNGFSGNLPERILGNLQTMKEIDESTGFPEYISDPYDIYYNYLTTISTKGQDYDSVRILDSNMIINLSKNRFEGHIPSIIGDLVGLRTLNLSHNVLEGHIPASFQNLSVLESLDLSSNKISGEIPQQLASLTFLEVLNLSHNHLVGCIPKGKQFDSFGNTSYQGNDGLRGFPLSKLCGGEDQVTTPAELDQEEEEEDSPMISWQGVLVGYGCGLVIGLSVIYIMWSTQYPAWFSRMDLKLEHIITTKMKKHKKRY
Assay: co-IP

binding: binds
Substance: SlSOBIR1-HA (tomato (Solanum lycopersicum)) (receptor)
